Laboratory results as given in patent publication US20090047287A1, “MODULATION OF BONE FORMATION” (Wyeth, priority 2006, published 2009).
These are yes or no findings as the source states them, for the method shown. In cells and extracts the contact can be indirect. Some results given as binding are weak or reduced against the parent protein; the word gives no strength. For some assays here: Tags and fused reporters may be left off the sequences shown.

The chains behind the UniProt entries cited, without tags or fusion partners. Where a name states a change or a piece, a line headed by the entry shows the natural chain unless it says otherwise. Residues count along the entry.
UniProt P31946: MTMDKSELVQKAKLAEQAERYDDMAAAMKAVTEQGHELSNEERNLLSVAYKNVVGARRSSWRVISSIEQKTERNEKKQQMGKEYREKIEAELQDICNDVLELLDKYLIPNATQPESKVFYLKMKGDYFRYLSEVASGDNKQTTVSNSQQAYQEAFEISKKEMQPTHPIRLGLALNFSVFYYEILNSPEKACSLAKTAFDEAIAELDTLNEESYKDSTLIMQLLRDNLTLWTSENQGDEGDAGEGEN
endogenous 14-3-3β protein of U2OS human osteosarcoma cells: residues 2-246 of P31946

Key:
[1] = molecular target: endogenous 14-3-3β protein of U2OS human osteosarcoma cells (human) (UniProt P31946); assay: co-immunoprecipitation from U2OS lysates (figure legend)
[2] = molecular target: endogenous 14-3-3β protein of U2OS human osteosarcoma cells (human) (UniProt P31946); assay: co-immunoprecipitation on anti-Flag affinity agarose from U2OS lysates, immunoblot with anti-14-3-3β
[3] = molecular target: endogenous 14-3-3β protein of U2OS human osteosarcoma cells (human) (UniProt P31946); assay: reverse co-immunoprecipitation on anti-14-3-3β antibody from U2OS lysates, immunoblot with anti-Flag
[4] = molecular target: T1, GST fusion of the cytosolic domain of human Ror2 (amino acids 428-944), made in E. coli from pGEX-4T-2 (human) (UniProt Q01974); assay: GST pull-down on glutathione sepharose (figure legend)
T1 sequence (looked up): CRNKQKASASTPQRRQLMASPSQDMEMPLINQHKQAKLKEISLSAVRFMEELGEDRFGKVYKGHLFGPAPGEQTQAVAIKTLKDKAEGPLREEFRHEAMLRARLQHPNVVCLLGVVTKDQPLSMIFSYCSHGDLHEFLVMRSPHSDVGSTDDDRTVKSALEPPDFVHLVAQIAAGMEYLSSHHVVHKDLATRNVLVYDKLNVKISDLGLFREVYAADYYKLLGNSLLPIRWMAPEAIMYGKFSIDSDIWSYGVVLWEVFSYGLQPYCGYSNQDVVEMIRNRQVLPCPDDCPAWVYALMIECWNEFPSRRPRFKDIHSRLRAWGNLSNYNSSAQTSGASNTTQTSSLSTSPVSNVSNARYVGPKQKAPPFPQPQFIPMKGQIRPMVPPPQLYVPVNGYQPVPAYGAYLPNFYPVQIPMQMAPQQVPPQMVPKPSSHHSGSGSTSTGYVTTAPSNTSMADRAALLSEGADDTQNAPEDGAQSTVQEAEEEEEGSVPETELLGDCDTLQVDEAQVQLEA

[5] = molecular target: T1, GST fusion of the cytosolic domain of human Ror2 (amino acids 428-944), made in E. coli from pGEX-4T-2 (human); assay: GST pull-down on glutathione sepharose, immunoblot with anti-14-3-3β

Substance	binding [1]	binding [2]	binding [3]	binding [4]	binding [5]
human Ror2 with COOH-terminal Flag epitope tag (wild-type) (from UniProt Q01974 34-943) (receptor)	binds	binds	binds	–	–
in vitro translated full-length human 14-3-3β (from 14-3-3β-pET28a) (from UniProt P31946 1-246)	–	–	–	binds	binds
